The target of this experiment is extracellular fibrinogen binding protein (Staphylococcus aureus) (UniProt A6QG59). Kind of experiment: ELISA; only the target purified.

Protein sequences, listed by entry. Tags and fused reporters are not part of them. Residues count along the entry.
UniProt A6QG59, residues 30-165: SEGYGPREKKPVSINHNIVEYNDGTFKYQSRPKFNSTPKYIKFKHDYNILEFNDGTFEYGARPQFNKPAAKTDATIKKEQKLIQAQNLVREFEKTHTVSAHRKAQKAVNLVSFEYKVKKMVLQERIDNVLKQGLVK

Results are given in words; binding and its absence hold for the method and conditions named. Some entries that bind do so weakly or less than the wild type.

B1: fibrinogen of cow plasma (protein, UniProt P02672;P02676;P12799)
chain 1: GPRLVERQQSACKETGWPFCSDEDWNTKCPSGCRMKGLIDEVDQDFTSRINKLRDSLFNYQKNSKDSNTLTKNIVELMRGDFAKANNNDNTFKQISEDLRSRIEILRRKVIEQVQRIKVLQKNVRDQLVDMKRLEVDIDIKIRSCKGSCSRALEHKVDLEDYKNQQKQLEQVIAINLLPSRDIQYLPLIKMSTITGPVPREFKSQLQEAPLEWKALLEMQQTKMVLETFGGDGHARGDSVSQGTGLAPGSPRKPGTSSIGNVNPGSYGPGSSGTWNPGRPEPGSAGTWNPGRPEPGSAGTWNPGRPEPGSAGTWNPGRPEPGSAGTWNPGRPEPGSAGTWNTGSSGSSSFRPDSSGHGNIRPSSPDWGTFREEGSVSSGTKQEFHTGKLVTTKGDKELLIDNEKVTSGHTTTTRRSCSKVITKTVTNADGRTETTKEVVKSEDGSDCGDADFDWHHTFPSRGNLDDFFHRDKDDFFTRSSHEFDGRTGLAPEFAALGESGSSSSKTSTHSKQFVSSSTTVNRGGSAIESKHFKMEDEAESLEDLGFKGAHGTQKGHTKARPARGIHTSPLGEPSLTP
chain 2: GHRPYDKKKEEAPSLRPVPPPISGGGYRARPATATVGQKKVERKPPDADGCLHADPDLGVLCPTGCKLQDTLVRQERPIRKSIEDLRNTVDSVSRTSSSTFQYITLLKNMWKGRQNQVQDNENVVNEYSSHLEKHQLYIDETVKNNIPTKLRVLRSILENLRSKIQKLESDVSTQMEYCRTPCTVTCNIPVVSGKECEKIIRNEGETSEMYLIQPEDSSKPYRVYCDMKTEKGGWTVIQNRQDGSVDFGRKWDPYKQGFGNIATNAEGKKYCGVPGEYWLGNDRISQLTNMGPTKLLIEMEDWKGDKVTALYEGFTVQNEANKYQLSVSKYKGTAGNALIEGASQLVGENRTMTIHNSMFFSTYDRDNDGWKTTDPRKQCSKEDGGGWWYNRCHAANPNGRYYWGGAYTWDMAKHGTDDGVVWMNWQGSWYSMKKMSMKIRPYFPEQ
chain 3: YVATRDNCCILDERFGSYCPTTCGIADFLNNYQTSVDKDLRTLEGILYQVENKTSEARELVKAIQISYNPDQPSKPNNIESATKNSKSMMEEIMKYETLISTHESTIRFLQEVYNSNSQKIVNLRDKVVQLEANCQEPCQDTVKIHDVTGRDCQDVANKGAKESGLYFIRPLKAKQFLVYCEIDGSGNGWTVFQKRLDGSLDFKKNWIQYKEGFGHLSPTGTGNTEFWLGNEKIHLISTQSSIPYVLRIQLEDWNGRTSTADYASFKVTGENDKYRLTYAYFIGGDAGDAFDGYDFGDDSSDKFFTSHNGMQFSTWDSDNDKYDGNCAEQVGIGWWMNKCHAGHLNGVYYQGGTYSKTSTPNGYDNGIIWATWKSRWYSMKKTTMKIIPLNRLAIGEGQQHQLGGAKQVGVEHHVEIEYD
Consider B1, for which the binding result is given as “binds”.

(Values after article PMC5404189.)
